Measurements taken from the supplement of paper PMC10849652.
This is one part of the list.

By UniProt entry, the sequences of proteins in these tests, tags left out. Where a name states a change or a piece, a line headed by the entry shows the natural chain unless it says otherwise.
UniProt Q8IUR7, whole entry, looked up: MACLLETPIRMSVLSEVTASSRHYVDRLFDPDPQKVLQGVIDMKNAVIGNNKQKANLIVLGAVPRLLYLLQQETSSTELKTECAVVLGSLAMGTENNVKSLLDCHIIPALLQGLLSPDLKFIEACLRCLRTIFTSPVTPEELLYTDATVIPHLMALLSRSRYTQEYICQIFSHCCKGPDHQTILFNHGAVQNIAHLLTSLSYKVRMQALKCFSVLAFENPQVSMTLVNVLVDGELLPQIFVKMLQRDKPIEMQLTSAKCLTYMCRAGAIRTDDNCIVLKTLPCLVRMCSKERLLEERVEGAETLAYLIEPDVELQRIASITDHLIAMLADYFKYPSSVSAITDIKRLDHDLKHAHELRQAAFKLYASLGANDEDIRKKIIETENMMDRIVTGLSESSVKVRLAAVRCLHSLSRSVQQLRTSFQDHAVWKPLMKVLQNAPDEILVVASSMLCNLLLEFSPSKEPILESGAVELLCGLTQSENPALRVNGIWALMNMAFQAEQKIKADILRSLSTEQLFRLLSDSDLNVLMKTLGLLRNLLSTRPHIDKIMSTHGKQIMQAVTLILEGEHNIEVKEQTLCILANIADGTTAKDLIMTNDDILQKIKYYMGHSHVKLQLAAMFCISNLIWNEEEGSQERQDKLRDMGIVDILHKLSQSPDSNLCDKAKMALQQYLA
UniProt P62330: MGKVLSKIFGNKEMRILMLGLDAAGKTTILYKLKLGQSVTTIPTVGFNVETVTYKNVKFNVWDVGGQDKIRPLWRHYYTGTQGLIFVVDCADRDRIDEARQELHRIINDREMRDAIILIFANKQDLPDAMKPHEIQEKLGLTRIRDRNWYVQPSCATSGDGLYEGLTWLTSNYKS
UniProt O43299: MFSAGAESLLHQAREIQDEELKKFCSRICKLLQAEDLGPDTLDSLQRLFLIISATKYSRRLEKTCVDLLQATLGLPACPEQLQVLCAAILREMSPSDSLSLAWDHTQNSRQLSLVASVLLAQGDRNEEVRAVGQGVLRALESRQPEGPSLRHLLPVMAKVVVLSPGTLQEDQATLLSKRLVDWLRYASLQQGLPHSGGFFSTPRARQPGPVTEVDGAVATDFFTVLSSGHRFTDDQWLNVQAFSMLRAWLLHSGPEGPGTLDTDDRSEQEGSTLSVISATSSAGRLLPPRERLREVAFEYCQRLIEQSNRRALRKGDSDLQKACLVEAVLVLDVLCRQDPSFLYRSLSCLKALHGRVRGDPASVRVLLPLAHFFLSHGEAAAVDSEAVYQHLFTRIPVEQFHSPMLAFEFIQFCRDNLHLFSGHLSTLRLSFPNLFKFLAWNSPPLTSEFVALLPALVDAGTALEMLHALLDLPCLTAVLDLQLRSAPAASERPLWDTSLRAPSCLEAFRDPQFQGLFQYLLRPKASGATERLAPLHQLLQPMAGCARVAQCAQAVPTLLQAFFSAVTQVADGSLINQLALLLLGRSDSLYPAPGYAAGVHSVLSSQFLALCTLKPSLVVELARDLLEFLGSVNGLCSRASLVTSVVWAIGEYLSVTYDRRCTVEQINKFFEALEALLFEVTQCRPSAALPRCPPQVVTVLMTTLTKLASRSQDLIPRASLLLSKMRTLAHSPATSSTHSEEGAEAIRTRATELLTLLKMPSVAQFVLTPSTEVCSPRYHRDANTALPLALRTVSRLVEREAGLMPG
UniProt P61204: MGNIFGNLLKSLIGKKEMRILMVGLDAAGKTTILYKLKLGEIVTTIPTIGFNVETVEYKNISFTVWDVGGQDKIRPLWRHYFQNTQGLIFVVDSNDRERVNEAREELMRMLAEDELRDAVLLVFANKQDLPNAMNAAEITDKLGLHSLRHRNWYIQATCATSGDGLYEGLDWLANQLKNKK
UniProt Q9HDC9: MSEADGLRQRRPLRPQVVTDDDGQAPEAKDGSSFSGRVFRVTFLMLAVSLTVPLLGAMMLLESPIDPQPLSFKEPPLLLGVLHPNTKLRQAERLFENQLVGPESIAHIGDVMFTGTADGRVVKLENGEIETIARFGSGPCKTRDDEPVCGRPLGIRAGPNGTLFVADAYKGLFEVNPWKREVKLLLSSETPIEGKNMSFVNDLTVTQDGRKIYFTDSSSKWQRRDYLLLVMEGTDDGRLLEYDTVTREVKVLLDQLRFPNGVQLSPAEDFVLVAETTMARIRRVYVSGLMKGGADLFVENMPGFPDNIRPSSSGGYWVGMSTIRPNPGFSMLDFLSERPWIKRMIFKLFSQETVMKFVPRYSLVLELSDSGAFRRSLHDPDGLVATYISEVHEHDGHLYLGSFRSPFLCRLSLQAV
UniProt Q9ULH1: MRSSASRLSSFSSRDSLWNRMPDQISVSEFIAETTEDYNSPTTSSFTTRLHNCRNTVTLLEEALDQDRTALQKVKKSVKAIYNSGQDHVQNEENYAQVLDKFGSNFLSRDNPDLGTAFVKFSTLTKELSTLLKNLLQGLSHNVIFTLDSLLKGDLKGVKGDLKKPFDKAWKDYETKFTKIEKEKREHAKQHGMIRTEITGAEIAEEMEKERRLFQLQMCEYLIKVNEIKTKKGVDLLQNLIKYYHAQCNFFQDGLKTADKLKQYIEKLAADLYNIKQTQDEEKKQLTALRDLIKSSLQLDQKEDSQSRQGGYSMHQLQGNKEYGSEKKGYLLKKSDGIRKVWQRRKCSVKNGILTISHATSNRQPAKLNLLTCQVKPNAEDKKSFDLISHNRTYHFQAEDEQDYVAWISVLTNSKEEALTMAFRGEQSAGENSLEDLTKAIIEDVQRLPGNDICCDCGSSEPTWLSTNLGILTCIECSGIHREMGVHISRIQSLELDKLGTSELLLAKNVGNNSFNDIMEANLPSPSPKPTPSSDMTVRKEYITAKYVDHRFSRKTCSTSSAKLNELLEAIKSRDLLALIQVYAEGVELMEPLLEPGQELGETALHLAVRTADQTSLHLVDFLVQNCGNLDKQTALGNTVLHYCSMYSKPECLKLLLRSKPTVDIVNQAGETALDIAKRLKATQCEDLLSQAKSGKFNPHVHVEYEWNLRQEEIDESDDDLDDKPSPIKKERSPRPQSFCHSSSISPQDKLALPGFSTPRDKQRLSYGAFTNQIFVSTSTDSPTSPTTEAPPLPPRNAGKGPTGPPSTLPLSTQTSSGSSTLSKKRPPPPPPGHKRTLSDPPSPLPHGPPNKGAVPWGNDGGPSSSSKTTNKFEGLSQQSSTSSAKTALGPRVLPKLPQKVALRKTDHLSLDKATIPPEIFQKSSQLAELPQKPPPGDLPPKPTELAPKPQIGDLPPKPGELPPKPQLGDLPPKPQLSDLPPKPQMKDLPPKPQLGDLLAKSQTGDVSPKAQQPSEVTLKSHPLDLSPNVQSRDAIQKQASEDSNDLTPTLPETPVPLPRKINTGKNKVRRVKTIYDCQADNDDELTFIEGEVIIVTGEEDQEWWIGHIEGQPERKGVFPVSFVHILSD
UniProt P84085: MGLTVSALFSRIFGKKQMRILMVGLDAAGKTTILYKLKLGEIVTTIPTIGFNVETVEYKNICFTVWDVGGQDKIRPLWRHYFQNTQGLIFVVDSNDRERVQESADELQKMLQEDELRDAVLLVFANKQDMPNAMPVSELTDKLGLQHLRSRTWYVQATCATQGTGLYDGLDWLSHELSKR
UniProt Q9Y6D6: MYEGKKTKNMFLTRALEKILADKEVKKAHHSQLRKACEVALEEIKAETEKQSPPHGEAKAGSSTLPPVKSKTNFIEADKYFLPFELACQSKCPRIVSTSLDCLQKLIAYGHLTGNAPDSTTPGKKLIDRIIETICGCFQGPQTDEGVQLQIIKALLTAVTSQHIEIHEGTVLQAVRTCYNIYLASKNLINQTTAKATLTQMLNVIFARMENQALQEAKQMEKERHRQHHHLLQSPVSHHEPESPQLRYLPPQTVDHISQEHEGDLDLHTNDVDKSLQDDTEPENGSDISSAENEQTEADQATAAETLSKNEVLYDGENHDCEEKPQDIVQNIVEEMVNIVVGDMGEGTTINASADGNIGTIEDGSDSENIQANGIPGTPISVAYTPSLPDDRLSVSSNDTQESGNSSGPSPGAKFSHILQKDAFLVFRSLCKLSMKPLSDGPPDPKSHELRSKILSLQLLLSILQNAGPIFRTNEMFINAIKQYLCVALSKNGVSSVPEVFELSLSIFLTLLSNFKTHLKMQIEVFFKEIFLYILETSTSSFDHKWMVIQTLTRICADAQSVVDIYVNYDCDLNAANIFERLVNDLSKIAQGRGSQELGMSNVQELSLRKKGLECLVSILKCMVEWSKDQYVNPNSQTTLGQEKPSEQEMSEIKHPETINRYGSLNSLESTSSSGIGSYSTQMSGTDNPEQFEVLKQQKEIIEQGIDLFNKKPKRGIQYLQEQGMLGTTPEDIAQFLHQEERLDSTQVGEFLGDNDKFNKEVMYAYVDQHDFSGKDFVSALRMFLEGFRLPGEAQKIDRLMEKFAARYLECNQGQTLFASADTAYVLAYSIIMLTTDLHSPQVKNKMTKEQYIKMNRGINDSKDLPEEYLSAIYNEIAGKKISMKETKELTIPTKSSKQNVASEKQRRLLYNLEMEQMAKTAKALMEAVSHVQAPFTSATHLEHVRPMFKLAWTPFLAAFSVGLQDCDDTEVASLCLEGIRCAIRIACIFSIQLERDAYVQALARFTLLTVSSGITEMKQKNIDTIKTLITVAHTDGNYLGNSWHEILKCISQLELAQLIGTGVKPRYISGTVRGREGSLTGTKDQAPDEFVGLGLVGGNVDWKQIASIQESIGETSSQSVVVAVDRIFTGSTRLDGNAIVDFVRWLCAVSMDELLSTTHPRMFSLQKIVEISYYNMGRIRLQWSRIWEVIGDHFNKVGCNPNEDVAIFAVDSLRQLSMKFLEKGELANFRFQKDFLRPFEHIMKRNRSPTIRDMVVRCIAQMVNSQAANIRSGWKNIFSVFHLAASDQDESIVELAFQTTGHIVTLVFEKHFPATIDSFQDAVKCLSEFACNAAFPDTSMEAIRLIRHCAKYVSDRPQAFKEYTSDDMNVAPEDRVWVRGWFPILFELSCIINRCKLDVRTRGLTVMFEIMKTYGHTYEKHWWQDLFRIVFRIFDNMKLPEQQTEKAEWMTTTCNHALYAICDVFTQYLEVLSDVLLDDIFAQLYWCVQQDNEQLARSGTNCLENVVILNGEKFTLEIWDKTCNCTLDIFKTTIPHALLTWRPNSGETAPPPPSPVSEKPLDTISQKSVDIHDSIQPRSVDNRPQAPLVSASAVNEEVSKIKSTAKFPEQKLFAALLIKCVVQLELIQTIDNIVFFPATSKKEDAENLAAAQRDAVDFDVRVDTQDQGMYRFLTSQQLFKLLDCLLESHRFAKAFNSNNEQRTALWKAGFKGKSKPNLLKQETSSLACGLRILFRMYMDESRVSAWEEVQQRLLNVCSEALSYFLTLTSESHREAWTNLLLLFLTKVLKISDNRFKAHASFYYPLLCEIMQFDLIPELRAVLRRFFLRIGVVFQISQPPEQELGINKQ
UniProt Q8IWW6: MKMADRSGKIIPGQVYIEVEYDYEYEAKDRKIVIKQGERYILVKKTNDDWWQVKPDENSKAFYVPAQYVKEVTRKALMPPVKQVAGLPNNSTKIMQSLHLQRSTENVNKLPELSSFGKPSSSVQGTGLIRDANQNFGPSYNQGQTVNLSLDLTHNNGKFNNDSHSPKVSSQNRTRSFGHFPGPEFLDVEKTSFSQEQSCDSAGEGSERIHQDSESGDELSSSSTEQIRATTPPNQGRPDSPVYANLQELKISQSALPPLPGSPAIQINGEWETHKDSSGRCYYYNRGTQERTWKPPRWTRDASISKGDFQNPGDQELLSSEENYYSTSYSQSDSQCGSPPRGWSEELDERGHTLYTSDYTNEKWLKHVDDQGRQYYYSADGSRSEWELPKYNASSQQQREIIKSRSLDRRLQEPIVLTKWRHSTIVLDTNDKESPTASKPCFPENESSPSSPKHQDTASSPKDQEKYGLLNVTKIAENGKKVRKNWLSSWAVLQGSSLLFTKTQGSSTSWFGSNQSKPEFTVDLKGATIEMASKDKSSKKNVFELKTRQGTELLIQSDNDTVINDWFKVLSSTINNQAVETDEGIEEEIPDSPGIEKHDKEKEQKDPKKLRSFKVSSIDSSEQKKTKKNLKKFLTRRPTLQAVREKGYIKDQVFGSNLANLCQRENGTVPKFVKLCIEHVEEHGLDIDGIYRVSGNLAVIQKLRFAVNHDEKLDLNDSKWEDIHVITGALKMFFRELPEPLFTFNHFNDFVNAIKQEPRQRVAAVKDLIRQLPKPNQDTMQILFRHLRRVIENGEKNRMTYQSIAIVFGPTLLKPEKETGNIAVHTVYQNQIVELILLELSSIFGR
UniProt Q96BM9: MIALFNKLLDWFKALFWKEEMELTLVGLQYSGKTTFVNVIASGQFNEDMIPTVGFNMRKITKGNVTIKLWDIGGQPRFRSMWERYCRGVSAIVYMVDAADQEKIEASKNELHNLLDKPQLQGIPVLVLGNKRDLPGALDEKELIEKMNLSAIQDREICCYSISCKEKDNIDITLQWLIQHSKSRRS

Key:
Experiment in all cases: log2 fold change, soluble protein after heating vs DMSO (PISA); higher = thermal stabilisation; K562 lysate, 10 uM; active = over 0.2 and 3.5 SD of the protein, either way, in both replicates (recomputed)
erlotinib = compound: C#Cc1cccc(Nc2ncnc3cc(OCCOC)c(OCCOC)cc23)c1 [erlotinib]
In short: (§1)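 Values give the log-two fold change in thermal stability against solvent controls, from duplicates. Crude K562 extract at 1 mg/mL protein, made by dounce homogenisation in PBS pH 7.4 with 1 mM MgCl2, was treated with 10 μM compound for 30 min. After 3 min heating across 48°C-58°C, aliquots were pooled, adjusted to 0.5% NP-40 at 4°C and centrifuged at 21,000xg for 90 min. The supernatant was measured by TMTpro 16plex LC-MS/MS with channel sums equalised.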

[1] = compound: C/C(=N\NC(=O)C1=CC(=CC=C1)S(=O)(=O)N2CCOCC2)/C3=C(C=CC(=C3)Cl)O
In short: as §1

[2] = compound: C1=CC(=CC=C1C2=NC3=C(N2)C=C(C=C3)C(=O)N)OC4=CC=C(C=C4)Cl
In short: as §1

[3] = compound: C1=CC2=C(C=CC(=C2)/C=C\3/C(=O)NC(=NCC4=CC=CS4)S3)N=C1
In short: as §1

[4] = compound: C1=CC2=NC=CN=C2C=C1/C=C/3\C(=O)NC(=O)S3
In short: as §1

[5] = compound: C1=CC=C(C=C1)C2=NC(=C(N2)C3=CC=NC=C3)C4=CC(=C(C=C4)Cl)O
In short: as §1

[6] = compound: C1=CC=C2C(=C1)C3=NNC4=CC=CC(=C43)C2=O
In short: as §1

[7] = compound: C1CCN(C1)C(=O)NC2=CC=CC(=C2)NC3=NC=C(C(=N3)NCCC4=CN=CN4)Br
In short: as §1

[8] = compound: C1CN(CCC1(CC2=CC=C(C=C2)Cl)N)C3=NC=NC4=C3C=CN4
In short: as §1

IRAK-1-4 Inhibitor I = compound: C1COCCN1CCN2C3=CC=CC=C3N=C2NC(=O)C4=CC(=CC=C4)[N+](=O)[O-] [IRAK-1-4 Inhibitor I]
In short: as §1

ibrutinib = compound: C=CC(=O)N1CCC[C@@H](n2nc(-c3ccc(Oc4ccccc4)cc3)c3c(N)ncnc32)C1 [ibrutinib]
In short: as §1

[9] = compound: CC(=O)c1cnc2ccc(-c3cc(Cl)c(O)c(Cl)c3)nc2c1N[C@H]1CC[C@H](CN(C)C)CC1
In short: as §1

ralimetinib = compound: CC(C)(C)Cn1c(N)nc2ccc(-c3[nH]c(C(C)(C)C)nc3-c3ccc(F)cc3)nc21 [ralimetinib]
In short: as §1

[10] = compound: CC(C)(O)CC(=O)NCCn1ccc2ncnc(Nc3ccc(Oc4cccc(C(F)(F)F)c4)c(Cl)c3)c21
In short: as §1

[11] = compound: CC(C)C1=C2N=C(C=C(N2N=C1)NCC3=CC=CC=C3)NCCCCCCN
In short: as §1

[12] = compound: CC1=C(C(CC(=O)N1)C2=CC=C(C=C2)C(F)(F)F)C(=O)NC3=C(C=C4C(=C3)C=NN4)F
In short: as §1

[13] = compound: CC1=C(C2=C(C=C1)C(=O)C3=CC=CC=C3N2CCCN)C
In short: as §1

[14] = compound: CC1=C(C=C(C=C1)NC(=O)C2=CC(=CC=C2)C(C)(C)C#N)NC3=CC4=C(C=C3)N=CN(C4=O)C
In short: as §1

[15] = compound: CC1=C(C=C(C=C1)NC(=O)C2=CC(=CC=C2)N(C)C)NC(=O)C3=CC=C(C=C3)O
In short: as §1

[16] = compound: CC1=CC=C(C=C1)SC2=C3C=C(SC3=CN=C2)C(=O)N
In short: as §1

Measured: log2 fold change

ARMC8 (UniProt Q8IUR7)
inactive: erlotinib -0.03 | [1] 0 | [2] 0.008 | [3] 0.023 | [4] -0.002 | [5] 0.022 | [6] 0.015 | [7] -0.046 | [8] -0.023 | IRAK-1-4 Inhibitor I -0.032 | ibrutinib -0.021 | [9] -0.028 | ralimetinib 0.006 | [10] -0.022 | [11] -0.031 | [12] 0.017 | [13] -0.024 | [14] -0.002 | [15] 0.012 | [16] -0.003

ARF6 (UniProt P62330)
inactive: erlotinib 0.038 | [1] -0.009 | [2] -0.003 | [3] 0.005 | [4] -0.001 | [5] 0.042 | [6] -0.007 | [7] -0.045 | [8] -0.029 | IRAK-1-4 Inhibitor I 0.044 | ibrutinib 0.051 | [9] -0.004 | ralimetinib 0.037 | [10] -0.027 | [11] -0.082 | [12] -0.027 | [13] 0.002 | [14] 0.018 | [15] -0.071 | [16] -0.012

AP5Z1 (UniProt O43299)
inactive: erlotinib 0.024 | [1] -0.023 | [2] 0.029 | [3] -0.043 | [4] 0 | [5] -0.004 | [6] -0.061 | [7] -0.06 | [8] 0.064 | IRAK-1-4 Inhibitor I 0.065 | ibrutinib 0.016 | [9] -0.151 | ralimetinib -0.009 | [10] -0.047 | [11] -0.028 | [12] -0.023 | [13] -0.143 | [14] 0.162 | [15] 0.028 | [16] -0.133

Copied from the listing (2 entries):
ARMC8 (UniProt Q8IUR7)
inactive: erlotinib -0.03 | [1] 0 | [2] 0.008 | [3] 0.023 | [4] -0.002 | [5] 0.022 | [6] 0.015 | [7] -0.046 | [8] -0.023 | IRAK-1-4 Inhibitor I -0.032 | ibrutinib -0.021 | [9] -0.028 | ralimetinib 0.006 | [10] -0.022 | [11] -0.031 | [12] 0.017 | [13] -0.024 | [14] -0.002 | [15] 0.012 | [16] -0.003

ARF6 (UniProt P62330)
inactive: erlotinib 0.038 | [1] -0.009 | [2] -0.003 | [3] 0.005 | [4] -0.001 | [5] 0.042 | [6] -0.007 | [7] -0.045 | [8] -0.029 | IRAK-1-4 Inhibitor I 0.044 | ibrutinib 0.051 | [9] -0.004 | ralimetinib 0.037 | [10] -0.027 | [11] -0.082 | [12] -0.027 | [13] 0.002 | [14] 0.018 | [15] -0.071 | [16] -0.012

(cont.)

ARHGAP6 (UniProt O43182)
inactive: erlotinib 0.013 | [1] -0.145 | [2] -0.04 | [3] 0.061 | [4] 0.07 | [5] 0.041 | [6] -0.005 | [7] -0.016 | [8] 0.037 | IRAK-1-4 Inhibitor I 0.015 | ibrutinib 0.081 | [9] -0.008 | ralimetinib -0.018 | [10] -0.038 | [11] -0.017 | [12] 0.101 | [13] -0.007 | [14] 0.002 | [15] 0.01 | [16] -0.018

APEH (UniProt P13798)
inactive: erlotinib -0.004 | [1] 0.005 | [2] -0.004 | [3] 0.02 | [4] 0.013 | [5] -0.003 | [6] 0.005 | [7] 0.002 | [8] -0.002 | IRAK-1-4 Inhibitor I -0.008 | ibrutinib 0.016 | [9] -0.008 | ralimetinib -0.002 | [10] -0.019 | [11] -0.016 | [12] -0.032 | [13] -0.01 | [14] -0.002 | [15] -0.035 | [16] 0.011

ARF3 (UniProt P61204)
inactive: erlotinib -0.01 | [1] -0.015 | [2] 0.01 | [3] 0.009 | [4] 0.002 | [5] 0.005 | [6] 0.011 | [7] -0.014 | [8] 0.006 | IRAK-1-4 Inhibitor I 0.029 | ibrutinib 0.078 | [9] 0.009 | ralimetinib 0.023 | [10] -0.007 | [11] -0.011 | [12] -0.017 | [13] -0.02 | [14] 0.052 | [15] -0.044 | [16] -0.013

APMAP (UniProt Q9HDC9)
inactive: erlotinib -0.038 | [1] 0.445 | [2] 0.004 | [3] -0.021 | [4] 0.008 | [5] -0.04 | [6] -0.019 | [7] 0.018 | [8] -0.018 | IRAK-1-4 Inhibitor I 0.035 | ibrutinib 0.044 | [9] 0.004 | ralimetinib 0.069 | [10] 0.007 | [11] 0.011 | [12] -0.016 | [13] 0.039 | [14] 0.006 | [15] 0.006 | [16] 0.014

ASAP1 isoform 2 (UniProt Q9ULH1)
inactive: erlotinib 0.002 | [1] 0.004 | [2] 0.026 | [3] -0.016 | [4] -0.016 | [5] 0.026 | [6] -0.045 | [7] -0.008 | [8] 0.023 | IRAK-1-4 Inhibitor I -0.004 | ibrutinib 0.016 | [9] -0.007 | ralimetinib 0.037 | [10] -0.02 | [11] 0 | [12] -0.037 | [13] -0.009 | [14] 0.009 | [15] 0.007 | [16] 0.016

ARGLU1 (UniProt Q9NWB6)
inactive: erlotinib -0.008 | [1] 0.069 | [2] -0.039 | [3] 0.009 | [4] -0.034 | [5] -0.057 | [6] -0.002 | [7] 0.003 | [8] -0.047 | IRAK-1-4 Inhibitor I 0.025 | ibrutinib 0.027 | [9] -0.034 | ralimetinib -0.027 | [10] 0.015 | [11] 0.005 | [12] -0.008 | [13] 0.026 | [14] -0.027 | [15] -0.022 | [16] 0.019

ARF5 (UniProt P84085)
inactive: erlotinib -0.03 | [1] -0.025 | [2] 0.053 | [3] 0.012 | [4] -0.057 | [5] -0.008 | [6] 0.008 | [7] -0.067 | [8] 0.003 | IRAK-1-4 Inhibitor I 0.011 | ibrutinib 0.031 | [9] 0.022 | ralimetinib 0.014 | [10] 0.055 | [11] -0.005 | [12] 0.013 | [13] -0.001 | [14] 0.005 | [15] -0.008 | [16] 0

ARHGEF18 (UniProt Q6ZSZ5)
inactive: erlotinib -0.007 | [1] 0.042 | [2] 0.025 | [3] -0.058 | [4] -0.016 | [5] 0.038 | [6] -0.05 | [7] -0.011 | [8] 0.048 | IRAK-1-4 Inhibitor I -0.069 | ibrutinib 0.031 | [9] 0.019 | ralimetinib -0.043 | [10] -0.021 | [11] -0.016 | [12] -0.081 | [13] 0 | [14] -0.015 | [15] -0.047 | [16] 0.021

ARFGEF1 (UniProt Q9Y6D6)
inactive: erlotinib 0.008 | [1] 0.003 | [2] -0.023 | [3] 0.017 | [4] -0.006 | [5] -0.006 | [6] -0.044 | [7] -0.015 | [8] -0.004 | IRAK-1-4 Inhibitor I 0.005 | ibrutinib -0.023 | [9] -0.003 | ralimetinib 0.025 | [10] -0.016 | [11] -0.016 | [12] 0.035 | [13] 0.002 | [14] 0.011 | [15] 0.013 | [16] -0.011

ARPC5 (UniProt O15511)
inactive: erlotinib -0.016 | [1] 0.024 | [2] -0.049 | [3] -0.049 | [4] 0.002 | [5] 0.021 | [6] -0.006 | [7] -0.01 | [8] -0.011 | IRAK-1-4 Inhibitor I 0.032 | ibrutinib -0.012 | [9] -0.019 | ralimetinib -0.018 | [10] -0.014 | [11] -0.009 | [12] 0.021 | [13] 0.003 | [14] -0.01 | [15] 0 | [16] -0.036

ARHGAP12 (UniProt Q8IWW6)
inactive: erlotinib 0.059 | [1] -0.043 | [2] 0.142 | [3] -0.028 | [4] -0.027 | [5] 0.007 | [6] -0.13 | [7] -0.017 | [8] 0.127 | IRAK-1-4 Inhibitor I 0.046 | ibrutinib 0.021 | [9] -0.05 | ralimetinib -0.14 | [10] -0.18 | [11] -0.009 | [12] 0.174 | [13] -0.031 | [14] 0.061 | [15] -0.039 | [16] -0.058

ARL6IP1 (UniProt Q15041)
inactive: erlotinib -0.025 | [1] 0.043 | [2] 0.038 | [3] -0.026 | [4] -0.087 | [5] -0.032 | [6] 0.022 | [7] 0.02 | [8] -0.01 | IRAK-1-4 Inhibitor I 0.035 | ibrutinib 0.141 | [9] 0.007 | ralimetinib -0.021 | [10] 0.024 | [11] -0.033 | [12] -0.004 | [13] -0.04 | [14] -0.025 | [15] 0.018 | [16] -0.02

ARL8A (UniProt Q96BM9)
inactive: erlotinib -0.223 | [1] -0.039 | [2] 0.176 | [3] 0.157 | [4] 0.036 | [5] 0 | [6] -0.041 | [7] 0.026 | [8] 0.028 | IRAK-1-4 Inhibitor I 0.091 | ibrutinib -0.141 | [9] 0.119 | ralimetinib -0.101 | [10] -0.102 | [11] 0.11 | [12] 0.135 | [13] -0.049 | [14] -0.143 | [15] -0.022 | [16] 0
